The target in this assay is TSPAN3-ΔLEL mutant (LEL domain deleted), GFP-tagged (UniProt O60637). Briefly: co-IP; A549 cells, 48 h after transfection of wild-type GFP-TSPAN3 or TSPAN3-ΔLEL; lysates immunoprecipitated with anti-GFP antibody, western blot of the partner. (In general: A western blot detects proteins with antibodies after separation by electrophoresis.)

By UniProt entry, the sequences of proteins in these tests, tags left out. Where a name states a change or a piece, a line headed by the entry shows the natural chain unless it says otherwise.
UniProt O60637: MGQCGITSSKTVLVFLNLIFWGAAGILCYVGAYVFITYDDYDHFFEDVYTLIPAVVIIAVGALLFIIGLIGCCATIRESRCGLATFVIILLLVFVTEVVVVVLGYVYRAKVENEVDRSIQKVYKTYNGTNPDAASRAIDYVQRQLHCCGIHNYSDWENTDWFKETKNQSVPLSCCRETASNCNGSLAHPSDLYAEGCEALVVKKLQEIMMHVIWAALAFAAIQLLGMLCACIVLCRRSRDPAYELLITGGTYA
UniProt P62491: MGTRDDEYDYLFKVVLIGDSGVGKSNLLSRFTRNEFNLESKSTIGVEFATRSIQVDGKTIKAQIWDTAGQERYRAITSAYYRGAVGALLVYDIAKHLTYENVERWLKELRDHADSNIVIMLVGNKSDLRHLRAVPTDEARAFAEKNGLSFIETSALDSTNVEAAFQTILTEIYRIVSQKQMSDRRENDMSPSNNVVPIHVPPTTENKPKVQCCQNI
UniProt P05556: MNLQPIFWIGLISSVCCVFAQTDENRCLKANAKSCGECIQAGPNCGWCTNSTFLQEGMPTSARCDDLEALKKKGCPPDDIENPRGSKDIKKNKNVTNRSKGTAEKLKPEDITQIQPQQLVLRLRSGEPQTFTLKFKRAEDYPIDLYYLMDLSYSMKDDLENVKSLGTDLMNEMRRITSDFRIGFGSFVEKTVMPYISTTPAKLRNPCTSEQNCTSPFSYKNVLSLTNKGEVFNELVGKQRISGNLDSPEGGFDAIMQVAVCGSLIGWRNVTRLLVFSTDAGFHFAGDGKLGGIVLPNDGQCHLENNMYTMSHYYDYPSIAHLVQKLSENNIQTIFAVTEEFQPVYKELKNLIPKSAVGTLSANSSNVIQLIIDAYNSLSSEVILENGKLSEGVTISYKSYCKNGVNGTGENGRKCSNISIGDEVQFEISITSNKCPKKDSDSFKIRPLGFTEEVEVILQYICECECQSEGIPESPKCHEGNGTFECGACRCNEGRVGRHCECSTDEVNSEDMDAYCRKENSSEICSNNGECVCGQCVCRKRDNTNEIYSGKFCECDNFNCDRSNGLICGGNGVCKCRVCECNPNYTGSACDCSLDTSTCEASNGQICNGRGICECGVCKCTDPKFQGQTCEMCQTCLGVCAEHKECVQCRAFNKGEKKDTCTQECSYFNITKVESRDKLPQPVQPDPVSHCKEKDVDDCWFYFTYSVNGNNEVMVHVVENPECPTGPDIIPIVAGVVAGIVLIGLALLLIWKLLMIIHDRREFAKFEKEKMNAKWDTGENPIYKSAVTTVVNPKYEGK

No constants are given. Whether binding was seen depends on the method and setting. In cells and extracts the contact can be indirect. A result given as binding can be weak or reduced; the word gives no strength.

In the case of “Ras-related protein Rab-11a, endogenous in A549 cells (from UniProt P62491 1-216)”, the binding result is “binds”.
As for “β1 integrin, endogenous in A549 cells (from UniProt P05556 21-798) (receptor)”, the entry is “no binding”.

These data come from PMC11428915.
